PubChem BioAssay AID1259327 – Drosophila RNAi Screening Center | 2017
Screen: 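Knock-downs altering cellular ATP with no metal added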. Cells: Drosophila S2R+ cells. Reagent: long dsRNA against Drosophila genes. Timing: 5 days (water added on day 4, read one day later). Conditions: water added as vehicle, no metal, one day before read-out. Read-out: 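Total ATP measured by luciferase light, scaled to plate mean, duplicates averaged, then z-scored across plates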. Scale: ATP z-score: higher = more total ATP than typical wells; ATP luminescence: higher = more total ATP. Call rule: 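a hit is any knock-down whose absolute ATP z-score is greater than 1.5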. Calls: active = hit: ATP up or down; inactive = no clear ATP change.
In all, the deposit lists about 3,100 reagents; below is a part drawn at random. Over the whole deposit, 378 (12%) were called active. 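Hits include both directions; z-score sign shows ATP rise or fall; raw luminescence values are not plate-normalised.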 Unmarked entries are inactive. No sequences are given here. Not given: the amount of reagent.

CG33203 [DRSC14876] gave ATP z-score, duplicate mean -0.122; ATP luminescence, replicate 1 (RLU) = 5.34e5; ATP luminescence, replicate 2 (RLU) = 7.15e5.
Against CG33203 [DRSC23428], the values are ATP z-score, duplicate mean -0.947; ATP luminescence, replicate 1 (RLU) = 7.50e5; ATP luminescence, replicate 2 (RLU) = 6.71e5.
CG30339 [DRSC05168] showed ATP z-score, duplicate mean -0.413; ATP luminescence, replicate 1 (RLU) = 8.05e5; ATP luminescence, replicate 2 (RLU) = 5.83e5.
After knock-down of CG14204 [DRSC19559] the results were ATP z-score, duplicate mean 0.953; ATP luminescence, replicate 1 (RLU) = 8.15e5; ATP luminescence, replicate 2 (RLU) = 8.79e5.
Depletion of CG14204 [DRSC29941] resulted in: ATP z-score, duplicate mean 0.672; ATP luminescence, replicate 1 (RLU) = 6.08e5; ATP luminescence, replicate 2 (RLU) = 6.66e5.
For Abca3 (ATP binding cassette subfamily A member 3) [DRSC20546] the deposit lists ATP z-score, duplicate mean 0.546; ATP luminescence, replicate 1 (RLU) = 7.76e5; ATP luminescence, replicate 2 (RLU) = 8.29e5.
Silencing of wwk (white walker) [DRSC01941] came out at: ATP z-score, duplicate mean -0.73; ATP luminescence, replicate 1 (RLU) = 6.42e5; ATP luminescence, replicate 2 (RLU) = 6.55e5.
CG42287 [DRSC39820] scored ATP z-score, duplicate mean -1.58 (active); ATP luminescence, replicate 1 (RLU) = 3.44e5; ATP luminescence, replicate 2 (RLU) = 3.95e5.
Against CG33281 [DRSC00421] the deposit lists ATP z-score, duplicate mean -0.243; ATP luminescence, replicate 1 (RLU) = 6.90e5; ATP luminescence, replicate 2 (RLU) = 6.72e5.
Knock-down of ppk11 (pickpocket 11) [DRSC02737] resulted in: ATP z-score, duplicate mean -0.255; ATP luminescence, replicate 1 (RLU) = 6.97e5; ATP luminescence, replicate 2 (RLU) = 7.01e5.
Depletion of wgn (wengen) [DRSC19998] resulted in: ATP z-score, duplicate mean -0.668; ATP luminescence, replicate 1 (RLU) = 6.34e5; ATP luminescence, replicate 2 (RLU) = 7.08e5.
Depletion of wgn (wengen) [DRSC39695] resulted in: ATP z-score, duplicate mean -0.0473; ATP luminescence, replicate 1 (RLU) = 4.32e5; ATP luminescence, replicate 2 (RLU) = 4.94e5.
Against ClC-b (Chloride channel-b) [DRSC07220], the entry reads ATP z-score, duplicate mean 2.41 (active); ATP luminescence, replicate 1 (RLU) = 8.89e5; ATP luminescence, replicate 2 (RLU) = 7.87e5.
Ipo9 (Importin 9) [DRSC16813] showed ATP z-score, duplicate mean 1.38; ATP luminescence, replicate 1 (RLU) = 4.06e5; ATP luminescence, replicate 2 (RLU) = 7.96e5.
CG14777 [DRSC18563] showed ATP z-score, duplicate mean -1.93 (active); ATP luminescence, replicate 1 (RLU) = 5.76e5; ATP luminescence, replicate 2 (RLU) = 6.22e5.
Gr85a (Gustatory receptor 85a) [DRSC12760] showed ATP z-score, duplicate mean -0.911; ATP luminescence, replicate 1 (RLU) = 2.60e5; ATP luminescence, replicate 2 (RLU) = 6.59e5.
Knock-down of Gr85a (Gustatory receptor 85a) [DRSC39653] came out at: ATP z-score, duplicate mean 0.0706; ATP luminescence, replicate 1 (RLU) = 4.55e5; ATP luminescence, replicate 2 (RLU) = 4.85e5.

2 entries from above in another layout:
{"Gene": "CG14204", "amplicon": "DRSC29941", "ATP z-score, duplicate mean": 0.672, "ATP luminescence, replicate 1 (RLU)": 6.08e5, "ATP luminescence, replicate 2 (RLU)": 6.66e5}
{"Gene": "Abca3 (ATP binding cassette subfamily A member 3)", "amplicon": "DRSC20546", "ATP z-score, duplicate mean": 0.546, "ATP luminescence, replicate 1 (RLU)": 7.76e5, "ATP luminescence, replicate 2 (RLU)": 8.29e5}
